# Reference: the supplement of paper PMC10849652
# Sequences of proteins named here, by UniProt entry; tags and fusion partners are left off. A change or cut given only in a name is not applied to a line headed by its entry.
# UniProt P49247: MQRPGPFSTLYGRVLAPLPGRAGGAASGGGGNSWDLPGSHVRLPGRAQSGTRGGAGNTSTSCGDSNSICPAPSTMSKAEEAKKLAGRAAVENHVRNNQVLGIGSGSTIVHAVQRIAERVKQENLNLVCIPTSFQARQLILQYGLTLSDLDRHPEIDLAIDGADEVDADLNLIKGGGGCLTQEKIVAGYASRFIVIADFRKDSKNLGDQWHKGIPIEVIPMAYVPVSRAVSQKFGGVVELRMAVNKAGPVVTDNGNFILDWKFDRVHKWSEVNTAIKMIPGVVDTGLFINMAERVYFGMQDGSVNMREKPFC
# UniProt Q5VZM2, whole entry, looked up: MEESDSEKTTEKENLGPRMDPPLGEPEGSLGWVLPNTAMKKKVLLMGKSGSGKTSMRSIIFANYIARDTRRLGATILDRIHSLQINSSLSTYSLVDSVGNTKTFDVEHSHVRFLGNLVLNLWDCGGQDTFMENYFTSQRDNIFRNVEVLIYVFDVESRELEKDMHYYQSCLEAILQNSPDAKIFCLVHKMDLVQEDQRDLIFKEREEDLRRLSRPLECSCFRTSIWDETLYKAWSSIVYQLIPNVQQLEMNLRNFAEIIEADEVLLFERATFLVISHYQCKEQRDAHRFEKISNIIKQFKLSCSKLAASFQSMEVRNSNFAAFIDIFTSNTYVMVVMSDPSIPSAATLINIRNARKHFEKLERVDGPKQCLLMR
# UniProt Q7LG56, whole entry, looked up: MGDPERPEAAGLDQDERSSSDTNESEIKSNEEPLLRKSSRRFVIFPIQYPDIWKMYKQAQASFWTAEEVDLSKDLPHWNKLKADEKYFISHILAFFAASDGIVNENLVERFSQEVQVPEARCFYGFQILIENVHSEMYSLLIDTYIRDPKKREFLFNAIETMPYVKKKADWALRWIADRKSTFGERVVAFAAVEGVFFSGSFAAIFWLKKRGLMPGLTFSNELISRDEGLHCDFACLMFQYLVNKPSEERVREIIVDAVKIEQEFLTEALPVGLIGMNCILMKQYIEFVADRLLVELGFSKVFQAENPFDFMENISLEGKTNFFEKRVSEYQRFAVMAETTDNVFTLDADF
# UniProt Q15418, whole entry, looked up: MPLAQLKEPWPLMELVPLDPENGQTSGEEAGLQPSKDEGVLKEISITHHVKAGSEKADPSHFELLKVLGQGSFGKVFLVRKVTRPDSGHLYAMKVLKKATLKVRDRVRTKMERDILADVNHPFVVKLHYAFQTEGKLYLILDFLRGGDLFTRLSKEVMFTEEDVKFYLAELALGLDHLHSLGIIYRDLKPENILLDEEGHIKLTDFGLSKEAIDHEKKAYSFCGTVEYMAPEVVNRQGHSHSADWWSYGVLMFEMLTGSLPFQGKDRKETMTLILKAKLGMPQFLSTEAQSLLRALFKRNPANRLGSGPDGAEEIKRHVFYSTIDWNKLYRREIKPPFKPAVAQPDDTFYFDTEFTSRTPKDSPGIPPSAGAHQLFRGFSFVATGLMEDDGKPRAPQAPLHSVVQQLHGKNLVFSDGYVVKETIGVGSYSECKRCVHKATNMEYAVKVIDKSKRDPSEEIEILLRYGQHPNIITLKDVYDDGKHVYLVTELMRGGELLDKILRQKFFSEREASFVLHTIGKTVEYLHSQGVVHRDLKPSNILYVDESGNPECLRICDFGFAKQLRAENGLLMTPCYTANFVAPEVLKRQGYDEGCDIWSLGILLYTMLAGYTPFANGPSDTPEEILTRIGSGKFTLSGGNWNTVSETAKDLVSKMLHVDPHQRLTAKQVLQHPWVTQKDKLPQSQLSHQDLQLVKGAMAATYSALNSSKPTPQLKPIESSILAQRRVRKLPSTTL
# UniProt O75818: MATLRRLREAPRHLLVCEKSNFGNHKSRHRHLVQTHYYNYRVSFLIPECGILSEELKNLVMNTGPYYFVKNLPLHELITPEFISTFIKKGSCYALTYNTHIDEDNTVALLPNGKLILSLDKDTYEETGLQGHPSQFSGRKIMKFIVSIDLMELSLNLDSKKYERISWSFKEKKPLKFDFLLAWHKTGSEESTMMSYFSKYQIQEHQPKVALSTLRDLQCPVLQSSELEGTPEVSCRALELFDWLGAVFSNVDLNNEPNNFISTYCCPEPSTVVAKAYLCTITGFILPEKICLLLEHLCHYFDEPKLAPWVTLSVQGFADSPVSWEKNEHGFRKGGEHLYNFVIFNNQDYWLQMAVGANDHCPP
# UniProt P62070: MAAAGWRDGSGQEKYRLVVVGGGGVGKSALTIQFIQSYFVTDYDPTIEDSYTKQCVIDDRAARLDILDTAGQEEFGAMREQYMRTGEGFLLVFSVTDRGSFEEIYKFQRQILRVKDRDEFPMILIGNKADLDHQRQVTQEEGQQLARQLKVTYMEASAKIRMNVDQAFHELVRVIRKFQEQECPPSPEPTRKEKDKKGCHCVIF
# UniProt Q9UBF6, whole entry, looked up: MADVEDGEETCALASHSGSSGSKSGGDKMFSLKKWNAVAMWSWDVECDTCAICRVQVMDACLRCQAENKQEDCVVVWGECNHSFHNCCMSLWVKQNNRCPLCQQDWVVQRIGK
# UniProt P15927: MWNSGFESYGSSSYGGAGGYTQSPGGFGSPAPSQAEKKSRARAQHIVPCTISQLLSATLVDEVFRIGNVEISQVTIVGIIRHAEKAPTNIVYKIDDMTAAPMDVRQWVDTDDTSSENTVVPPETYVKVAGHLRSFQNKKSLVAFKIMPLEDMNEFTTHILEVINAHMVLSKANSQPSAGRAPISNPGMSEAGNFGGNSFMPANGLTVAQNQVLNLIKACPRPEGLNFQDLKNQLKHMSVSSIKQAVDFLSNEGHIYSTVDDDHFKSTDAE
# UniProt O43148, whole entry, looked up: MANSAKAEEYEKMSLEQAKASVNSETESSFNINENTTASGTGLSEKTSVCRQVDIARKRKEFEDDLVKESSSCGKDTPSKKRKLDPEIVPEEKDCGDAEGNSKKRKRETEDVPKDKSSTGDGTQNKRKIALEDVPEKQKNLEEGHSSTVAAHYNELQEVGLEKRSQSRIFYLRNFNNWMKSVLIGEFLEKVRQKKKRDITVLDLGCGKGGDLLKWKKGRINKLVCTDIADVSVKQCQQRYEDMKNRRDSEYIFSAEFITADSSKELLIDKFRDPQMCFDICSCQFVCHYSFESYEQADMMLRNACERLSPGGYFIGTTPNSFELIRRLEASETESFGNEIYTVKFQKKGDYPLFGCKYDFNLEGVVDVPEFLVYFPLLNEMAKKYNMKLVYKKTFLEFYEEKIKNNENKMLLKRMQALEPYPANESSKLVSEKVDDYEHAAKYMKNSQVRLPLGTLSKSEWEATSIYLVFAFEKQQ
# UniProt Q01974, whole entry, looked up: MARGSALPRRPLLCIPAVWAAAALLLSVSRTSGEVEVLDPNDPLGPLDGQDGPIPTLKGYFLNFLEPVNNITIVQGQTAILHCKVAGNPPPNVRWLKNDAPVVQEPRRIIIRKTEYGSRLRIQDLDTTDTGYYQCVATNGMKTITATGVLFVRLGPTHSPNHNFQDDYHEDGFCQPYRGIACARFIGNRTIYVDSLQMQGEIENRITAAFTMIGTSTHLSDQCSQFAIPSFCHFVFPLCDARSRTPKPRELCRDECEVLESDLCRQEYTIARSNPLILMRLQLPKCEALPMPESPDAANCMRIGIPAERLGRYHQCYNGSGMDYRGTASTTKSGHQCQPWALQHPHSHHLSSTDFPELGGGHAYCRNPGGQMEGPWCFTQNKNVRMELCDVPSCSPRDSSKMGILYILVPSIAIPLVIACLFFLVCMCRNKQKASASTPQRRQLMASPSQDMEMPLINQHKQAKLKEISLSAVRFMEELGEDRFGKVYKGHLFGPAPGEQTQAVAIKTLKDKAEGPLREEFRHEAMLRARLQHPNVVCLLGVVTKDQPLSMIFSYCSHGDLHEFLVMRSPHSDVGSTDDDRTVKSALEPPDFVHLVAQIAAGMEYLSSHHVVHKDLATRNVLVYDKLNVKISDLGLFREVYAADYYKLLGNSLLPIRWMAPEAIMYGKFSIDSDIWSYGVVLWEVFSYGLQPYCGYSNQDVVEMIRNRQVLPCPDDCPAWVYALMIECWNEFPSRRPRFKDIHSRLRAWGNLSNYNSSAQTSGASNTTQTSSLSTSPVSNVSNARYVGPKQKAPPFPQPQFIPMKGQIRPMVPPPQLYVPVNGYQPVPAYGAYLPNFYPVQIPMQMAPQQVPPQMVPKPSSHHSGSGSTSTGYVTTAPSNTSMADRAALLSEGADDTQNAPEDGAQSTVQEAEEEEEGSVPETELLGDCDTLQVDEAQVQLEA
# UniProt P05386, whole entry, looked up: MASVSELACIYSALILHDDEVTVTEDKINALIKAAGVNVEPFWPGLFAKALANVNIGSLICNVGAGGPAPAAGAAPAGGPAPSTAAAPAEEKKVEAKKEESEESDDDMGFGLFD
# The other results are listed elsewhere or left out.
# Experiments:
# Test in all cases: log2 fold change, soluble protein after heating vs DMSO (PISA); higher = thermal stabilisation; K562 cells, 10 uM, 30 min; active = over 0.2 and 3.5 SD of the protein, either way, in both replicates (recomputed)
# bafetinib = compound: Cc1ccc(NC(=O)c2ccc(CN3CC[C@H](N(C)C)C3)c(C(F)(F)F)c2)cc1Nc1nccc(-c2cncnc2)n1 [bafetinib]
# Method in brief: (§1)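 K562 cells at 2×10^6 cells/mL were given 10 μM compound for 30 min. Aliquots then went through 3 min of heating across 48°C-58°C, were pooled, and were extracted in PBS with 0.5% NP-40 at 4°C, and the supernatant after 21,000xg for 90 min was quantified by TMTpro 16plex LC-MS/MS with channel sums equalised. Thermal stability relative to control samples, from duplicates, is given as log2 fold change.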
# [1] = compound: Cc1cccc(CC(=O)N2CCc3c2ccc(-c2cn(C)c4ncnc(N)c24)c3F)n1
# Method in brief: as §1
# nilotinib = compound: Cc1cn(-c2cc(NC(=O)c3ccc(C)c(Nc4nccc(-c5cccnc5)n4)c3)cc(C(F)(F)F)c2)cn1 [nilotinib]
# Method in brief: as §1
# [2] = compound: Cc1nc(Nc2n[nH]c3c2CN(C(=O)N[C@H](CN(C)C)c2ccccc2)C3(C)C)c2sccc2n1
# Method in brief: as §1
# dasatinib = compound: Cc1nc(Nc2ncc(C(=O)Nc3c(C)cccc3Cl)s2)cc(N2CCN(CCO)CC2)n1 [dasatinib]
# Method in brief: as §1
# [3] = compound: Cc1ncc(-c2ccnc(Nc3ccc(S(C)(=O)=O)cc3)n2)n1C(C)C
# Method in brief: as §1
# [4] = compound: Cn1cc(-c2ccc3c(c2)CCN3C(=O)Cc2cccc(C(F)(F)F)c2)c2c(N)ncnc21
# Method in brief: as §1
# [5] = compound: Cn1cc(-c2ccc3nnc(C(F)(F)c4ccc5ncccc5c4)n3n2)cn1
# Method in brief: as §1
# tipifarnib = compound: Cn1cncc1[C@@](N)(c1ccc(Cl)cc1)c1ccc2c(c1)c(-c1cccc(Cl)c1)cc(=O)n2C [tipifarnib]
# Method in brief: as §1
# mubritinib = compound: FC(F)(F)c1ccc(/C=C/c2nc(COc3ccc(CCCCn4ccnn4)cc3)co2)cc1 [mubritinib]
# Method in brief: as §1
Target,log2 fold change (bafetinib),log2 fold change [1],log2 fold change (nilotinib),log2 fold change [2],log2 fold change (dasatinib),log2 fold change [3],log2 fold change [4],log2 fold change [5],log2 fold change (tipifarnib),log2 fold change (mubritinib)
RPS27L (UniProt Q71UM5),inactive: 0.048,inactive: -0.019,inactive: 0.02,inactive: 0.137,inactive: -0.015,inactive: -0.021,inactive: -0.039,inactive: -0.042,inactive: -0.039,inactive: -0.014
RPL29 (UniProt P47914),inactive: 0.535,inactive: -0.005,inactive: 0.025,inactive: 0.082,inactive: 0.219,inactive: -0.014,inactive: -0.427,inactive: -0.273,inactive: 0.167,inactive: -0.374
RPS3 (UniProt P23396),inactive: 0.219,inactive: -0.004,inactive: -0.009,inactive: 0.193,inactive: 0.063,inactive: -0.056,inactive: -0.132,inactive: -0.028,inactive: 0.075,inactive: -0.045
RPL38 (UniProt P63173),inactive: 0.089,inactive: 0.01,inactive: 0.026,inactive: 0.155,inactive: 0.057,inactive: -0.003,inactive: -0.023,inactive: -0.022,inactive: -0.021,inactive: 0.006
RPIA (UniProt P49247),inactive: -0.039,inactive: -0.003,inactive: 0,inactive: 0.006,inactive: -0.014,inactive: -0.017,inactive: 0.051,inactive: 0.015,inactive: -0.018,inactive: 0.022
RRAGB (UniProt Q5VZM2),inactive: -0.079,inactive: -0.045,inactive: 0.031,inactive: -0.003,inactive: 0.041,inactive: 0.009,inactive: 0.06,inactive: 0.043,inactive: -0.025,inactive: 0.037
RPS6 (UniProt P62753),inactive: 0.388,inactive: -0.002,inactive: 0.078,inactive: 0.211,inactive: 0.124,inactive: -0.045,inactive: -0.233,inactive: -0.14,inactive: 0.002,inactive: -0.218
RRM2B isoform 6 (UniProt Q7LG56),inactive: -0.024,inactive: -0.04,inactive: -0.003,inactive: 0.028,inactive: 0.068,inactive: -0.006,inactive: 0.026,inactive: 0.053,inactive: 0.09,inactive: 0.032
RPL18 (UniProt Q07020),inactive: 0.574,inactive: -0.001,inactive: 0.021,inactive: 0.236,inactive: 0.382,inactive: -0.056,inactive: -0.694,inactive: -0.347,inactive: 0.502,inactive: -0.428
RPL19 (UniProt P84098),inactive: 0.365,inactive: 0,inactive: 0.033,inactive: 0.177,inactive: 0.129,inactive: -0.024,inactive: -0.304,inactive: -0.212,inactive: 0.237,inactive: -0.206
RPS18 (UniProt P62269),inactive: 0.214,inactive: -0.015,inactive: -0.001,inactive: 0.198,inactive: 0.069,inactive: -0.054,inactive: -0.088,inactive: -0.001,inactive: 0.031,inactive: -0.022
RPS6KA1 isoform 2 (UniProt Q15418),inactive: -0.051,inactive: 0.081,inactive: -0.002,active: -0.569,inactive: -0.281,inactive: -0.044,inactive: -0.019,inactive: 0,inactive: -0.056,inactive: 0.041
RPP40 (UniProt O75818),inactive: 0.039,inactive: -0.083,inactive: -0.029,inactive: -0.031,inactive: 0.039,inactive: 0.009,inactive: -0.004,inactive: 0.017,inactive: 0.018,inactive: 0.001
RRAS2 isoform 4 (UniProt P62070),inactive: -0.05,inactive: -0.082,inactive: 0.111,inactive: -0.021,inactive: 0.066,inactive: 0.025,inactive: 0.062,inactive: -0.03,inactive: 0.088,inactive: -0.025
RNF7 (UniProt Q9UBF6),inactive: -0.003,inactive: 0,inactive: -0.052,inactive: -0.003,inactive: 0.101,inactive: -0.007,inactive: 0.052,inactive: 0.078,inactive: 0,inactive: 0.014
RPL32 (UniProt P62910),inactive: 0.49,inactive: 0.024,inactive: -0.003,inactive: 0.257,inactive: 0.234,inactive: -0.045,inactive: -0.497,inactive: -0.142,inactive: 0.275,inactive: -0.276
RPS25 (UniProt P62851),inactive: 0.259,inactive: -0.007,inactive: 0.015,inactive: 0.174,inactive: 0.07,inactive: -0.032,inactive: -0.177,inactive: -0.077,inactive: 0.062,inactive: -0.068
RPL34 (UniProt P49207),inactive: 0.569,inactive: 0.001,inactive: 0.046,inactive: 0.284,inactive: 0.336,inactive: -0.038,inactive: -0.586,inactive: -0.298,inactive: 0.394,inactive: -0.389
RPS8 (UniProt P62241),inactive: 0.344,inactive: 0.007,inactive: 0.046,inactive: 0.202,inactive: 0.161,inactive: -0.037,inactive: -0.226,inactive: -0.146,inactive: 0.089,inactive: -0.151
RPL35 (UniProt P42766),inactive: 0.393,inactive: -0.018,inactive: 0.011,inactive: 0.261,inactive: 0.226,inactive: -0.042,inactive: -0.455,inactive: -0.168,inactive: 0.258,inactive: -0.214
RPA2 isoform 3 (UniProt P15927),inactive: -0.038,inactive: -0.02,inactive: -0.032,inactive: -0.013,inactive: 0.015,inactive: 0.019,inactive: 0.034,inactive: 0.064,inactive: -0.011,inactive: 0.028
RPL27 (UniProt P61353),inactive: 0.491,inactive: 0,inactive: 0.059,inactive: 0.223,inactive: 0.277,inactive: -0.015,inactive: -0.53,inactive: -0.177,inactive: 0.176,inactive: -0.301
RNMT isoform 2 (UniProt O43148),inactive: -0.002,inactive: -0.027,inactive: -0.024,inactive: 0.053,inactive: 0.076,inactive: 0.024,inactive: -0.035,inactive: -0.016,inactive: 0.04,inactive: -0.021
RPL37 (UniProt P61927),inactive: 0.41,inactive: 0.047,inactive: 0.014,inactive: 0.185,inactive: 0.272,inactive: -0.03,inactive: -0.406,inactive: -0.209,inactive: 0.151,inactive: -0.24
RPS27A (UniProt P62979),inactive: 0.147,inactive: 0.023,inactive: 0.056,inactive: 0.2,inactive: 0.119,inactive: 0.007,inactive: -0.172,inactive: 0,inactive: 0.079,inactive: -0.121
ROR2 (UniProt Q01974),inactive: 0.024,inactive: 0.052,inactive: 0.009,inactive: -0.105,inactive: -0.124,inactive: 0.063,inactive: 0.043,inactive: -0.041,inactive: 0.03,inactive: 0.029
RPL9 (UniProt P32969),inactive: 0.499,inactive: 0,inactive: -0.001,inactive: 0.3,inactive: 0.308,inactive: -0.055,inactive: -0.458,inactive: -0.256,inactive: 0.268,inactive: -0.343
RPS9 (UniProt P46781),inactive: 0.318,inactive: -0.001,inactive: 0.003,inactive: 0.206,inactive: 0.106,inactive: -0.035,inactive: -0.176,inactive: -0.088,inactive: 0.067,inactive: -0.09
RPLP1 (UniProt P05386),inactive: 0.39,inactive: -0.09,inactive: 0.104,inactive: 0.191,inactive: 0.216,inactive: -0.08,inactive: -0.385,inactive: -0.155,inactive: 0.525,inactive: -0.268
RPL36AL (UniProt Q969Q0),inactive: 0.394,inactive: 0.015,inactive: 0.067,inactive: 0.121,inactive: 0.185,inactive: -0.047,inactive: -0.344,inactive: -0.163,inactive: 0.12,inactive: -0.24

# Full records as entered above. Values in the order: log2 fold change (bafetinib)	log2 fold change [1]	log2 fold change (nilotinib)	log2 fold change [2]	log2 fold change (dasatinib)	log2 fold change [3]	log2 fold change [4]	log2 fold change [5]	log2 fold change (tipifarnib)	log2 fold change (mubritinib)
# RPL35 (UniProt P42766) as listed: inactive: 0.393	inactive: -0.018	inactive: 0.011	inactive: 0.261	inactive: 0.226	inactive: -0.042	inactive: -0.455	inactive: -0.168	inactive: 0.258	inactive: -0.214
# RPL27 (UniProt P61353) as listed: inactive: 0.491	inactive: 0	inactive: 0.059	inactive: 0.223	inactive: 0.277	inactive: -0.015	inactive: -0.53	inactive: -0.177	inactive: 0.176	inactive: -0.301
